In PubChem BioAssay AID1347423 (Functional Genomics Laboratory (NCATS/FGL), 2020):
About 210 (0.4%) of roughly 52,000 sequences were called active.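 The calls were made as follows: active = gene whose silencing raises cell survival under the drug, median off-target-corrected z-score across its silencing RNAs 2 or more; inactive = the rest.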 Some of the results follow.

assay: Resistance to Poly (ADP-Ribose) Polymerase inhibitor: Gene Identification via Genome-wide siRNA Screen; settings: mouse BRCA2 R2336H ES cells, olaparib, CellTiter-Glo viability; hits give high values
Procedure, shortened: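 Mouse BRCA2 R2336H ES cells were reverse-transfected with siRNA (20 nM final), treated at 48 h with 500 nM olaparib, and read by CellTiter-Glo after 72 h. Scores: MAD-based z per siRNA, median per gene, seed off-target correction.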

Which z-score does the source give for GGCUGAAAAGAAAAACAGATT against Rgs5 here?
The z-score was inactive: -0.484.

With GGAAAUCCAUUGUUUAAAGTT against Wt1 as the sequence, how does the z-score read?
Its z-score is inactive: 0.289.

For CCUUCAUUCUCAUUGGCAUTT against Olfr591, which z-score is on record?
Its z-score is inactive: -0.0543.

For GCCUGGCCUUUCCAAUAUCTT against AU018829, which z-score is on record?
The z-score was inactive: -1.16.

Which z-score does the source give for GCCUAAGGUCCAAACCAAGTT against Rpl29 here?
The z-score was inactive: -1.66.

Which z-score does the source give for “GGAAGUUGUAUAAGCCAGGTT against 9330151E16Rik” here?
Its z-score is inactive: -0.695.

Which z-score does the source give for GGAAUUCAGCGAAGAGAAUTT against Rgs10 here?
Its z-score is inactive: -1.18.

With GGGUAUAUUUUUGAUACCUTT against Ncor2 as the sequence, how does the z-score read?
The z-score was inactive: 0.155.

Which z-score does the source give for GGCACCUAGAAUGAGAUGCTT against Nhlh2 here?
Its z-score is inactive: 0.533.

For GGUUCAAGAAAAAACCCAATT against Ezh1, which z-score is on record?
Its z-score is inactive: 0.411.

For GGAUUUGACUGAGAAAGACTT against LOC545925, which z-score is on record?
Its z-score is inactive: -0.638.

For CCAAAACAAUACUCACCACTT against Mfap4, which z-score is on record?
Its z-score is inactive: 0.163.

For GGUGGAUGCAAUUCUCUGUTT against Qdpr, which z-score is on record?
Its z-score is inactive: 0.539.

With “GGUCCUAAUGCACUUUUUATT against 1700093K21Rik” as the sequence, how does the z-score read?
The z-score was inactive: 0.736.

For GCCUGACAUUGGGACAAAGTT against Trim34, which z-score is on record?
Its z-score is inactive: -0.667.

Which z-score does the source give for GGAUUGCCAUCUGUGGUGCTT against Ltb4dh here?
Its z-score is inactive: 0.0916.

For “CCCGCACAUGAAAUCCGCUTT against 3110032G18Rik”, which z-score is on record?
Its z-score is inactive: -0.425.

Which z-score does the source give for GCAUUAUACCUGUCAAGUUTT against Klk1 here?
The z-score was inactive: -1.34.

Which z-score does the source give for GGUUCUAGCAAACGGAGAATT against Phf12 here?
Its z-score is inactive: -1.12.

With GGUUCUAUCUGAUAGGCGATT against Gdf9 as the sequence, how does the z-score read?
Its z-score is inactive: -0.697.

Which z-score does the source give for GCGGCUUUGGAAUGACUCUTT against Samd8 here?
Its z-score is inactive: 1.28.

Which z-score does the source give for GGUCCAGCUGUUCAUGACUTT against Kcnn4 here?
The z-score was inactive: -0.583.

Which z-score does the source give for “GCUACAAACAAAAGUGGCCTT against 2810453L12Rik” here?
Its z-score is inactive: 0.097.

With “GGGAACCGUUCUUUACUUATT against D430018P08” as the sequence, how does the z-score read?
Its z-score is inactive: 0.64.

Which z-score does the source give for GGAUCAUCAAGGACUUCAUTT against Ppil1 here?
Its z-score is inactive: -1.39.

With “GGUCAACUUUCUACAAAAGTT against 1700001M19Rik” as the sequence, how does the z-score read?
The z-score was inactive: 0.662.

With GGGACAUCUUCUCCAAUGATT against Slc24a3 as the sequence, how does the z-score read?
Its z-score is inactive: -1.66.

With GGAACCUACUGCUACAUCATT against Sftpc as the sequence, how does the z-score read?
The z-score was inactive: 3.16.

For GCAGGUGAAAAGCAAUCCUTT against Mpn, which z-score is on record?
Its z-score is inactive: -0.145.
